Data as given in PubChem BioAssay AID504467 (National Center for Advancing Translational Sciences (NCATS), 2011).
About 7,700 (2.3%) of roughly 330,000 compounds were called active. This list was built around the results that the source calls inconclusive (neither active nor inactive); the mix of calls is not that of the screen. Calls follow the shape of the dose curve; as a rule, active = well fitted inhibition curve with a large enough effect; inconclusive = small, poorly fitted or top-dose-only effect, or effect the other way; inactive = flat fitted curve, though single readings scatter. Potencies of inconclusive entries are doubtful fits and often do not repeat.

Assay: qHTS screen for small molecules that inhibit ELG1-dependent DNA repair in human embryonic kidney (HEK293T) cells expressing luciferase-tagged ELG1; also: nearly all actives have a fitted effect of over 55% in size
Details: HEK293T ELG1-luciferase reporter, luminescence, 16 h, DNA damage induced by 5-fluorouridine; series mostly up to 46.1 µM
How it was run: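 Cells (2,000 per well) received 5-fluorouridine plus test compound or DMSO and were incubated 16 hr at 37 °C, 5% CO2. Luciferase activity was read by luminescence 30 min after ONE-Glo addition; signal suppression marked inhibition of damage-induced ELG1 function.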
Potency is read from the fitted curve at half-maximal effect.

| Structure (SMILES) | Potency |
| --- | --- |
| CCCN1C(=O)c2ccc(C(=O)Nc3cc(C)on3)cc2C1=O | inconclusive: 29.1 µM [activator, partial curve, poor fit] |
| O=C(O)CCC(=O)N1N=C(c2ccc(Br)cc2)CC1c1cccc(Br)c1 (configuration not stated) | inactive |
| CC(C(=O)NC1C=CS(=O)(=O)C1)N1C(=O)/C(=C/c2ccc(Cl)cc2)SC1=S (configuration not stated) | inconclusive: 18.3 µM [activator, single point] |
| COc1ccc(C(=O)Nc2ccc(Cl)cn2)cc1S(=O)(=O)N1CCCC1 | inactive |
| COc1ccccc1NC(=S)N(CCc1nc2cc(C)c(C)cc2[nH]1)Cc1cccnc1 | inconclusive: 29.1 µM [inhibitor, partial curve, poor fit] |
| CC(C)Nc1nnc(Sc2ccc(Cl)cc2[N+](=O)[O-])s1 | inconclusive: 16.4 µM [activator, partial curve] |
| O=C(COC(=O)/C=C/c1ccc2c(c1)OCO2)Nc1ccc(S(=O)(=O)N2CCCC2)cc1 | inconclusive: 25.9 µM [inhibitor, partial curve, poor fit] |
| CSc1nc(C)cc(/C=C\c2ccccc2)c1C#N | inconclusive: 25.9 µM [activator, partial curve, poor fit] |
| CCNc1ccc(S(=O)(=O)N(C)C)cc1NCC(=O)Nc1ccc(F)c(Cl)c1 | inconclusive: 13 µM [inhibitor, partial curve, poor fit] |
| CCOC(=O)c1nn(-c2ccc(F)cc2)c(-c2ccccc2)c1C(=O)c1ccccc1 | inconclusive: 23.1 µM [inhibitor, single point] |
| Cc1ccc2oc(-c3ccc(NC(=O)c4ccncc4)cc3O)nc2c1 | inconclusive: 18.3 µM [activator, partial curve] |
| CCCC(C(=O)NCc1ccco1)N(Cc1ccco1)C(=O)CNS(=O)(=O)c1ccccc1 (configuration not stated) | inactive |
| C/C(CC(C)C)=N\NC(=O)Nc1ccccc1 | inconclusive: 16.4 µM [activator, partial curve] |
| CCOC(=O)NC(C)N1C(=O)C2C3C=CC(C3)C2C1=O (configuration not stated) | inactive |
| CC(C)CCNC(=O)C12CN(Cc3ccccc3)CC1C(c1cccc([N+](=O)[O-])c1)=NO2 (configuration not stated) | inconclusive: 25.9 µM [inhibitor, partial curve, poor fit] |
| COc1ccc(NC(=S)Nc2ccc(S(N)(=O)=O)cc2)c(OC)c1 | inactive |
| CC(=O)Oc1ccc2c(c1)OC(c1ccccc1)CC21CC(C)(C)NC(=S)N1 (configuration not stated) | inactive |
| CC(C)NS(=O)(=O)c1ccc(OCC(=O)Nc2ccc3c(c2)OCO3)c(Cl)c1 | inconclusive: 29.1 µM [inhibitor, single point] |
| Cc1ccc(C(=O)N2CCN(c3ccc(NC(=S)NC(=O)c4cccs4)cc3)CC2)cc1 | inconclusive: 14.6 µM [inhibitor, partial curve, poor fit] |
| O=C(Nc1nc(-c2ccc(Cl)s2)cs1)c1ccncc1 | inactive |
| Cc1c(Cl)cccc1NC(=O)c1ccco1 | inactive |
| CC1CCc2sc(C(=O)N(C)CC(=O)Nc3ccc(N4CCOCC4)cc3)cc2C1 (configuration not stated) | inactive |
| COCCNC(=S)N(CCc1c(C)[nH]c2ccc(F)cc12)Cc1ccco1 | inconclusive: 29.1 µM [inhibitor, single point] |
| Cc1nn2c(N3CCN(C)CC3)c3c(nc2c1-c1ccccc1)CCCC3 | inactive |

| Structure (SMILES) | Potency |
| --- | --- |
| COc1ccc(/C=C/C(=O)Nc2cc(C)on2)cc1 | inconclusive: 4.61 µM [activator, full curve] |
| Cc1[nH]c(C)c(S(=O)(=O)NCc2ccc(OC(C)C)cc2)c1C(=O)N1CCCC1 | inactive |
| O=C(NC(=S)Nc1cccc(Cl)c1N1CCCCC1)c1ccc2c(c1)OCCO2 | inactive |
| CCCCCOC(=O)C1=C(C)Nc2ncnn2C1c1cccs1 (configuration not stated) | inconclusive: 29.1 µM [inhibitor, single point] |
| Cc1cc(C)c(NC(=O)CSc2ccc(-c3cccnc3)nn2)c(C)c1 | inactive |
| Cc1ccc(S(=O)(=O)c2cc3cc(Br)ccc3oc2=O)cc1 | inconclusive: 18.4 µM [inhibitor, single point] |
| O=C(N/N=C/c1sc(N2CCOCC2)nc1-c1ccccc1)c1ccccc1O | active: 18.4 µM |
| O=C(Nc1nc(-c2cccs2)cs1)c1ccc(Cl)s1 | inconclusive: 16.4 µM [activator, partial curve] |
| CCOC(=O)/C(=N\Nc1ccccc1Cl)N1CCN(C)CC1 | inactive |
| O=C(Nc1ccc(Cl)cc1)N1CCN(Cc2ccc3c(c2)OCO3)CC1 | inactive |
| CSc1ccccc1NC(=O)CN(C)C(=O)c1c(C)nn(Cc2ccccc2)c1C | inactive |
| C(#Cc1ccccc1)C[N+]1(CC#Cc2cccc3ccccc23)CCOCC1 | inactive |
| Cc1ccc(C(=O)Nc2nc(=O)n(C(=O)c3ccccc3Cl)s2)cc1 | inconclusive: 4.11 µM [activator, partial curve] |
| CCn1ccnc1CN1CCCCC1C(=O)Nc1ccc(Oc2cccnc2)cc1 (configuration not stated) | inconclusive: 8.2 µM [inhibitor, partial curve] |
| CCn1c2ccccc2c2cc(NC(=O)COC(=O)c3ccc(NC(=O)CC#N)cc3)ccc21 | inconclusive: 7.3 µM [activator, single point] |
| Fc1cc(F)c2nc(Nc3nc4cc5c(cc4s3)OCO5)sc2c1 | inconclusive: 16.4 µM [activator, partial curve] |
| O=C(C[n+]1ccc(CCSc2ccc(F)cc2)cc1)c1ccccc1 | inconclusive: 29.1 µM [activator, single point] |
| CC1CCC(C(C)C)C(=O)/C1=C\c1ccc(NC(=O)CCC(=O)O)cc1 (configuration not stated) | inconclusive: 29.1 µM [inhibitor, single point] |
| COc1cccc(-c2cc(C(F)(F)F)n3ncc(C(=O)O)c3n2)c1 | inactive |
| Cc1cccc(N2CCN(C(=O)CNC(=O)c3cccc([N+](=O)[O-])c3)CC2)c1C | active: 18.3 µM |
| Cc1ccc(NC(=O)CSC2=C(C#N)C(c3ccc4c(c3)OCO4)C3=C(CCCC3=O)N2)c(C)c1 (configuration not stated) | inconclusive: 35.5 µM [inhibitor, single point] |
| Cc1ccc(CSc2nnc(CCCCCNC(=O)OC(C)(C)C)o2)cc1 | inconclusive: 18.3 µM [inhibitor, single point] |
| Cc1ccc(SCCC(=O)N2CCOCC2)cc1 | inconclusive: 23.1 µM [activator, partial curve] |
| O=C(NCc1ccccc1)c1ccc(NC(=O)c2ccccc2F)cc1 | inactive |

Exported with tabs: entries from further up.
Structure (SMILES)	Potency
Cc1ccc(NC(=O)CSC2=C(C#N)C(c3ccc4c(c3)OCO4)C3=C(CCCC3=O)N2)c(C)c1 (configuration not stated)	inconclusive: 35.5 µM [inhibitor, single point]
Cc1ccc(CSc2nnc(CCCCCNC(=O)OC(C)(C)C)o2)cc1	inconclusive: 18.3 µM [inhibitor, single point]
Cc1ccc(SCCC(=O)N2CCOCC2)cc1	inconclusive: 23.1 µM [activator, partial curve]

Continued:

| Structure (SMILES) | Potency |
| --- | --- |
| N#CCSc1n[nH]c2nc3c(c(=O)n12)C1(CCCCC1)Cc1ccccc1-3 | inconclusive: 14.6 µM [inhibitor, partial curve, poor fit] |
| COc1cc(S(=O)(=O)NCC(c2ccco2)N2CCCCC2)ccc1NC(C)=O (configuration not stated) | inactive |
| Cc1cccc(C(=O)NCC(=O)NC2CCC(C)CC2)c1 (configuration not stated) | inconclusive: 5.17 µM [activator, single point] |
| CN1CCN(c2ccc(S(=O)(=O)N3CCCCC3)cc2NC(=O)COc2ccc(F)cc2)CC1 | inactive |
| Cc1c(C)n(Cc2ccccc2)c2ncnc(N)c12 | active: 16.4 µM |
| O=C(N/N=C\c1ccccn1)c1ccccc1O | inconclusive: 29.1 µM [activator, single point] |
| COC(=O)C1=C(C)C(c2ccc(OC)cc2)NC(=S)N1 (configuration not stated) | inconclusive: 23.1 µM [activator, partial curve, poor fit] |
| CC(C)(C)OC(=O)NCc1ccc(CNC(=O)c2ncn(Cc3ccccc3)c2C(=O)NCc2ccc(CNC(=O)OC(C)(C)C)cc2)cc1 | inconclusive: 1.83 µM [inhibitor, partial curve, poor fit] |
| Cc1cc(C)nc(SCCC(=O)N(C)C)n1 | inconclusive: 23.1 µM [activator, single point] |
| CN1C2C=C3C(C#N)=C(N)C(C#N)(C#N)[C@@H](c4ccc(Cl)cc4)[C@@H]3C1CC2 (some centres not stated) | inactive |
| CCOc1cccc(/C=N/NC(=O)c2ccc3c(c2)OCCO3)c1O | inconclusive: 2.31 µM [inhibitor, partial curve, poor fit] |
| CC(=O)NC(=S)Nc1ccccc1F | inconclusive: 29.1 µM [activator, single point] |
| Cc1ccc(C(=O)NC(=S)Nc2ccc(S(=O)(=O)N3CCN(C)CC3)cc2)cc1 | inactive |
| N=C1C(c2nc(-c3ccc(Cl)cc3)cs2)=C(O)CN1CCCN1CCOCC1 | inactive |
| O=C(NNC(=O)c1cc(F)c(F)cc1Cl)c1ccc(NS(=O)(=O)c2cccs2)cc1 | inconclusive: 29.1 µM [activator, partial curve, poor fit] |
| COc1ccc(NC(=O)CSc2nnc(CCC(=O)Nc3ccc(C)c(Cl)c3)n2C)cc1 | inactive |
| CCn1nc(C)c(CNC(=O)C2CCC(=O)N(CCc3ccc(OC)cc3)C2)c1C (configuration not stated) | inactive |
| N=C1C(c2ccccc2)=C(O)CN1c1cccc(S(=O)(=O)N2CCOCC2)c1 | inconclusive: 18.3 µM [activator, single point] |
| COc1cc(CC(=O)OCC(=O)N2C(C)CCCC2C)cc(OC)c1OC (configuration not stated) | inactive |
| COc1cc2c(cc1OC)CN(C(=O)c1cc(C3CC3)nn1-c1ccccc1)CC2 | inconclusive: 29.1 µM [inhibitor, single point] |
| CCOC(=O)C1=C(C)N(c2ccc(C)cc2)C(=O)/C1=C\c1ccc(O)c(OC)c1 | inactive |
| C[N+](C)(C)C/C=C1/COCO1 | inactive |
| O=C(Nc1ccc(Br)cc1)N1CCCCCC1 | inconclusive: 13 µM [activator, partial curve] |
| CC1CC(C)CN(C(=O)COC(=O)COc2ccccc2C#N)C1 (configuration not stated) | inconclusive: 7.3 µM [activator, partial curve, poor fit] |
